Laboratory results taken from patent publication US12630829B2, “Gene encoding cytochrome P450 and use thereof” (KUMIAI CHEMICAL INDUSTRY CO., LTD., priority 2020, dated 2026).
Some entries share one result that the patent states for a list of compounds.

tested on: Arabidopsis thaliana having AK454412 introduced thereinto and wild type; assay: Test of sensitivity to various drugs, AK454412-introduced versus wild type Arabidopsis thaliana; format: in vivo; settings: evaluated subjectively based on drug concentration exhibiting the effect; 0, 0.1, 1, 10, 100, 1,000 nM
Procedure: Therefore, similar tests were performed on compounds having various acting properties described in HRAC including these sulfonylurea-based ALS inhibitors to search for a compound that can be metabolically degraded by AK454412. Specifically, 61 compounds arbitrarily selected from all of the 25 classifications of HRAC 2020 were subjected to sensitivity examination in Arabidopsis thaliana having AK454412 introduced thereinto and wild type. The sensitivity to each of the drugs was evaluated subjectively with respect to every acting symptom.
As a result, compounds found to have a difference in the sensitivity between the wild type and the recombinant Arabidopsis thaliana are illustrated in FIGS. 10-1 to 10-4. It is noted that concentrations of the drug in respective wells of a plate shown in each photograph in FIGS. 10-1 to 10-4 are 0, 0.1, and 1 nM in the stated order in the rightward direction in an upper portion, and 10, 100, and 1,000 nM in the stated order in the rightward direction in a lower portion. Besides, the compound found to have a sensitivity difference are listed below.

| Structure (SMILES) | approximate sensitivity difference between wild type and recombinant Arabidopsis thaliana |
| --- | --- |
| Cc1ccc(C(=O)COc2c(C(=O)c3ccc(Cl)c(C)c3Cl)c(C)nn2C)cc1 [benzofenap] | < 100 |
| COC(=O)c1ccccc1S(=O)(=O)NC(=O)Nc1nc(C)nc(OC)n1 [metsulfuron-methyl] | < 10 |
| COc1cc(OC)nc(NC(=O)NS(=O)(=O)c2ncccc2C(=O)N(C)C)n1 [nicosulfuron] | < 10 |
